The source of these data is PMC3103587.

The target in assay [1] is Mfn2-HR2 (HR2-containing C-terminal cytosolic domain). The assay is described as follows: two-hybrid; Matchmaker Two-Hybrid System 3, yeast AH109, growth in SD/-Leu/-Trp/-His; the legend does not tell whether semi-quantitative or dilution series (Fig. 2B, 3B, 8A, 8B, 8E).
The target of assay [2] is C-terminal coiled coil domain of DLP1 (DLP1-CC). The description is as above.
Assay [3] addresses Mfn2-HR2 (HR2-containing C-terminal cytosolic domain). In words: two-hybrid; semi-quantitative: Matchmaker Two-Hybrid System 3, yeast AH109; ratio of colony numbers on SD/-Leu/-Trp/-His and SD/-Leu/-Trp plates (HIS3 activity).
Assay [4] has the same target. The assay is described as follows: two-hybrid; dilution series: Matchmaker Two-Hybrid System 3, yeast AH109; 1:5 serial dilutions spotted onto SD/-Leu/-Trp/-His, grown for four days.
Assay [5] has as its target C-terminal coiled coil domain of DLP1 (DLP1-CC). Described as above.

No constants are given. Whether binding was seen depends on the method and setting. Binding can be weak; no strength is given.

B1: Mfn2[360–448] (domain or fragment, UniProt O95140 360-448)
chain: QHTVRAKQIAEAVRLIMDSLHMAAREQQVYCEEMREERQDRLKFIDKQLELLAQDYKLRIKQITEEVERQVSTAMAEEIRRLSVLVDDY
As for B1, the binding entry in assay [1], in assay [2], in assay [3], in assay [4] and in assay [5] was “binds” in each case.

B2: Mfn2[360–448]-L408P (domain or fragment, UniProt O95140 360-448)
chain: QHTVRAKQIAEAVRLIMDSLHMAAREQQVYCEEMREERQDRLKFIDKQPELLAQDYKLRIKQITEEVERQVSTAMAEEIRRLSVLVDDY
In the case of B2, the binding result is recorded as “no binding” in assay [1] and “binds” in assay [2].

B3: Mfn2[360–448]-L441P (domain or fragment, UniProt O95140 360-448)
chain: QHTVRAKQIAEAVRLIMDSLHMAAREQQVYCEEMREERQDRLKFIDKQLELLAQDYKLRIKQITEEVERQVSTAMAEEIRRPSVLVDDY
On to B3, for which the binding entry in assay [1] was “binds”; in assay [2], “no binding”.

B4: Mfn2[360–448]-L374P (domain or fragment, UniProt O95140 360-448)
chain: QHTVRAKQIAEAVRPIMDSLHMAAREQQVYCEEMREERQDRLKFIDKQLELLAQDYKLRIKQITEEVERQVSTAMAEEIRRLSVLVDDY
B4: the binding entry in assay [1] and in assay [2] was “no binding” in each case.
